In article doi:10.1101/2023.06.14.544764:
These are yes or no findings as the source states them, for the method shown. In cells and extracts the contact can be indirect. A yes stands for co-enrichment or nearness to the bait. Other partners may have been found. Tags and fused reporters may be left off the sequences shown.

Tests used:
[1] = target: T1, PURA fused to eGFP (human (SupT1 cDNA or available template plasmids)) (UniProt Q00577); experiment: affinity purification with mass spectrometry
T1 sequence: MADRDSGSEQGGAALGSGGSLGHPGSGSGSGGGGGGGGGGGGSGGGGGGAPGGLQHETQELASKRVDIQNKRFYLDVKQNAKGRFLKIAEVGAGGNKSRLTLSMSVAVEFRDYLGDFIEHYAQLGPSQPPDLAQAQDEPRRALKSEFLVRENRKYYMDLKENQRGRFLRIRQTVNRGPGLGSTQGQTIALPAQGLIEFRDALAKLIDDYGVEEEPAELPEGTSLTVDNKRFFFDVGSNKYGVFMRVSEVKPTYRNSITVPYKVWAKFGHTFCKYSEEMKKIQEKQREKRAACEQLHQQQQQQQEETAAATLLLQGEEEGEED

[2] = target: T2, PURB fused to eGFP (human (SupT1 cDNA or available template plasmids)) (UniProt Q96QR8); experiment: affinity purification with mass spectrometry
T2 sequence: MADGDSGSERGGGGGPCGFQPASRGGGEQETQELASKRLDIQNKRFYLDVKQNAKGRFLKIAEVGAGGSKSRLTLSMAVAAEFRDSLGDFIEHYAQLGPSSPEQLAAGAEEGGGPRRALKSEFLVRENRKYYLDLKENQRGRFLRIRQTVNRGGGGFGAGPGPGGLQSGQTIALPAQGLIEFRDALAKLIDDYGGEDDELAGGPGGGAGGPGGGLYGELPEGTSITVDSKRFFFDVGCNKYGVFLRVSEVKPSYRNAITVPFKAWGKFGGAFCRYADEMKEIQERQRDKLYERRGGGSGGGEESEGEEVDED

B1: MOV10 (protein, UniProt Q9HCE1 1-1003)
chain: MPSKFSCRQLREAGQCFESFLVVRGLDMETDRERLRTIYNRDFKISFGTPAPGFSSMLYGMKIANLAYVTKTRVRFFRLDRWADVRFPEKRRMKLGSDISKHHKSLLAKIFYDRAEYLHGKHGVDVEVQGPHEARDGQLLIRLDLNRKEVLTLRLRNGGTQSVTLTHLFPLCRTPQFAFYNEDQELPCPLGPGECYELHVHCKTSFVGYFPATVLWELLGPGESGSEGAGTFYIARFLAAVAHSPLAAQLKPMTPFKRTRITGNPVVTNRIEEGERPDRAKGYDLELSMALGTYYPPPRLRQLLPMLLQGTSIFTAPKEIAEIKAQLETALKWRNYEVKLRLLLHLEELQMEHDIRHYDLESVPMTWDPVDQNPRLLTLEVPGVTESRPSVLRGDHLFALLSSETHQEDPITYKGFVHKVELDRVKLSFSMSLLSRFVDGLTFKVNFTFNRQPLRVQHRALELTGRWLLWPMLFPVAPRDVPLLPSDVKLKLYDRSLESNPEQLQAMRHIVTGTTRPAPYIIFGPPGTGKTVTLVEAIKQVVKHLPKAHILACAPSNSGADLLCQRLRVHLPSSIYRLLAPSRDIRMVPEDIKPCCNWDAKKGEYVFPAKKKLQEYRVLITTLITAGRLVSAQFPIDHFTHIFIDEAGHCMEPESLVAIAGLMEVKETGDPGGQLVLAGDPRQLGPVLRSPLTQKHGLGYSLLERLLTYNSLYKKGPDGYDPQFITKLLRNYRSHPTILDIPNQLYYEGELQACADVVDRERFCRWAGLPRQGFPIIFHGVMGKDEREGNSPSFFNPEEAATVTSYLKLLLAPSSKKGKARLSPRSVGVISPYRKQVEKIRYCITKLDRELRGLDDIKDLKVGSVEEFQGQERSVILISTVRSSQSFVQLDLDFNLGFLKNPKRFNVAVTRAKALLIIVGNPLLLGHDPDWKVFLEFCKENGGYTGCPFPAKLDLQQGQNLLQGLSKLSPSTSGPHSHDYLPQEREGEGGLSLQVEPEWRNEL
B1 was tested, and the binding [1] was “binds” and the binding [2] was “binds”.

B2: Pur-beta (PURB) (protein, UniProt Q96QR8 1-312)
chain: T2 sequence
With B2 the binding [1] was “binds”.

B3: transcriptional activator protein Pur-alpha (PURA) (protein, UniProt Q00577 1-322)
chain: T1 sequence
B3 was tested, and the binding [2] was “binds”.
